The values are deposited in ChEMBL (CHEMBL3988442, “University of Dundee, Small-Polar-MMV Screening Library” (2021)).

The chains behind the UniProt entries cited, without tags or fusion partners. Residues count along the entry.
UniProt Q4DA54, 1-478: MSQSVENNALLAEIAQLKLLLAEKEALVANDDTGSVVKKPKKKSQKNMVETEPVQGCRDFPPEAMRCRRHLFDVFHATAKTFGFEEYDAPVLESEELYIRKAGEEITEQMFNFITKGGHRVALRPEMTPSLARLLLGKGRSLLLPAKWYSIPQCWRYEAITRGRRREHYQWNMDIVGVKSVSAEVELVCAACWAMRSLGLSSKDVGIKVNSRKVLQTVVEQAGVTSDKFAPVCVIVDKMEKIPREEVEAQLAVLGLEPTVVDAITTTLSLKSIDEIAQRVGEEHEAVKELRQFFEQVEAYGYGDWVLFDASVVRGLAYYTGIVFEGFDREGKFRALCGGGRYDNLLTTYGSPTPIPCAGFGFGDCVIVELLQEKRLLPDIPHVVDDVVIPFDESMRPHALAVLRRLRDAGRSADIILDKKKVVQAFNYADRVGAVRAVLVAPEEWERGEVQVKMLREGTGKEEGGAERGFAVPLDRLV
UniProt I6X8D2, whole entry: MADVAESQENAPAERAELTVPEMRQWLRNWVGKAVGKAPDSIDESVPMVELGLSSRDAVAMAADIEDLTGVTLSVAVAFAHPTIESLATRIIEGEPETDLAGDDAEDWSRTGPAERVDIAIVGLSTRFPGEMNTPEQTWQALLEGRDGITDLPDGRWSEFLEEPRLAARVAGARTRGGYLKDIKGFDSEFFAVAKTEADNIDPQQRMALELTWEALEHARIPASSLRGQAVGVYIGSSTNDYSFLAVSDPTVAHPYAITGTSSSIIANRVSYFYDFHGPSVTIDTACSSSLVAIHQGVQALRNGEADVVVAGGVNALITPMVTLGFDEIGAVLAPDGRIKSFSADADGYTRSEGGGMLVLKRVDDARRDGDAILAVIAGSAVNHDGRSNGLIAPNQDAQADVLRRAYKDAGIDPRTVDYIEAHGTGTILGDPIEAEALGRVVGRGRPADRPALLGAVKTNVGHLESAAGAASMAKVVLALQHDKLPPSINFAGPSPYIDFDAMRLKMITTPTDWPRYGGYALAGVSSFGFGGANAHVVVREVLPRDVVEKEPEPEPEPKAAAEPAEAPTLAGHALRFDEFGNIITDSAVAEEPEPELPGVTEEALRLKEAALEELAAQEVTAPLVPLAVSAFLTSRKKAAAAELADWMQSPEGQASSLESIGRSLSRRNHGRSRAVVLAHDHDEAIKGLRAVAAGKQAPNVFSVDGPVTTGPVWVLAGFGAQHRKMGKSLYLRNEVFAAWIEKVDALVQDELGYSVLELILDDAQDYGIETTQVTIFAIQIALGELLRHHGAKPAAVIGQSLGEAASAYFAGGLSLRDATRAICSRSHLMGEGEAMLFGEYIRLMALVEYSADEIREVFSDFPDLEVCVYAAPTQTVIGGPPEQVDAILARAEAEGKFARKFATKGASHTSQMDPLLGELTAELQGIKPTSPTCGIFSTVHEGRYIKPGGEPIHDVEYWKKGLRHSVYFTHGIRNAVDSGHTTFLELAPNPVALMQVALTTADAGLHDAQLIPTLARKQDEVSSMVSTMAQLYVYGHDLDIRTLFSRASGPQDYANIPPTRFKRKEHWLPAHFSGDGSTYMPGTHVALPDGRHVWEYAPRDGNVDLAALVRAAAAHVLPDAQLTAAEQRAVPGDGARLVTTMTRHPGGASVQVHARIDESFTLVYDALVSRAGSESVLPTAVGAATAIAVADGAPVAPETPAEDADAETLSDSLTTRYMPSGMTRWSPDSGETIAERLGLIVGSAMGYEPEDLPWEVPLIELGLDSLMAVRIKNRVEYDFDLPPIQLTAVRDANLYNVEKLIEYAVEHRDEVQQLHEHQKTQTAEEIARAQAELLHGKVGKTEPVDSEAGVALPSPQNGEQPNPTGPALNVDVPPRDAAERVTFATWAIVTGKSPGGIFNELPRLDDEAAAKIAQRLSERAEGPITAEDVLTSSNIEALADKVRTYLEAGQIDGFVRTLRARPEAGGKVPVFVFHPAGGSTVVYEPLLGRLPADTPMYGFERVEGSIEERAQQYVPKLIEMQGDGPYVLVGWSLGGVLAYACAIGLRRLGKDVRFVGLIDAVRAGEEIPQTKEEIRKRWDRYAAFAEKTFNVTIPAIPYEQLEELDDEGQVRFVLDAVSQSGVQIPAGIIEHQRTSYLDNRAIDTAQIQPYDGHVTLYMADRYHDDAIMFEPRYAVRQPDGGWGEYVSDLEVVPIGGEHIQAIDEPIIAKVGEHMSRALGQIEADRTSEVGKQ
UniProt P9WNZ1, whole entry: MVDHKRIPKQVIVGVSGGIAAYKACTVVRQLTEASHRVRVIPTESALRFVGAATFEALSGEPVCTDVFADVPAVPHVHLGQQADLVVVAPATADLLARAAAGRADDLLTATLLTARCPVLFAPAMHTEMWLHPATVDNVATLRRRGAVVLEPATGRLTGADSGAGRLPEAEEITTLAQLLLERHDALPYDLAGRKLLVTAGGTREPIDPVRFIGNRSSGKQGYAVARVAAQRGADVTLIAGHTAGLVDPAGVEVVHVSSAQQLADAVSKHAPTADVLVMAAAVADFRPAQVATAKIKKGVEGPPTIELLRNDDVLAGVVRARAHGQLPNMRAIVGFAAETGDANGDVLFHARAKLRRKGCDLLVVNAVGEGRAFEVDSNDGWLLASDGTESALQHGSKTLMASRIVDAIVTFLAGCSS
UniProt Q8IDJ8, 1-583: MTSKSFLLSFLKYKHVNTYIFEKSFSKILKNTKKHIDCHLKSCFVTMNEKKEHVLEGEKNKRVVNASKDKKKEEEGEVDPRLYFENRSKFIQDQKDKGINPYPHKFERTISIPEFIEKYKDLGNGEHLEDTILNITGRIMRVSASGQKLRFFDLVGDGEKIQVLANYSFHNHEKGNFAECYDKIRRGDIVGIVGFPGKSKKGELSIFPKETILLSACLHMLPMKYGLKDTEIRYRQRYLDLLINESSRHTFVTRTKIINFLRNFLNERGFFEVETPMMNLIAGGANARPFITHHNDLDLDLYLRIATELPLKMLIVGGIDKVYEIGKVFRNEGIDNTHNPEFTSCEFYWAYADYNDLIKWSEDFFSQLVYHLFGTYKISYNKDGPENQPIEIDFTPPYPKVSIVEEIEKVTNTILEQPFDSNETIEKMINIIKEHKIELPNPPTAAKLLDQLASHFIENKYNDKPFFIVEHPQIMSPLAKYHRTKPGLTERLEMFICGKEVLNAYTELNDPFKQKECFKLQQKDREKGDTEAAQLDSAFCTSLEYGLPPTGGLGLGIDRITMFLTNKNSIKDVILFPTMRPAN
UniProt P9WFT3, whole entry: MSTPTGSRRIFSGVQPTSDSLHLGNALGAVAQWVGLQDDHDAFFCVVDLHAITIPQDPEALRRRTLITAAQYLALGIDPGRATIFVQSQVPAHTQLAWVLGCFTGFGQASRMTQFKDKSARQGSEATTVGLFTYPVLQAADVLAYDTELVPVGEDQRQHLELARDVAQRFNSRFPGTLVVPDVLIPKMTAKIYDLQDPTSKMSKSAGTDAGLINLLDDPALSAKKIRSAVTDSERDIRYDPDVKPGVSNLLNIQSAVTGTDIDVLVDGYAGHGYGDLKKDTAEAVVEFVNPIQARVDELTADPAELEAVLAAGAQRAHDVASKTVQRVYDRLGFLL

Each number is a percent effect as filed. The controls that fix the scale are not given in the record; negative values are as filed. Compounds were drawn at random from those tested, without regard to their results. Two or more numbers in one place are separate tests of the same structure; such repeats can differ widely. A dash means the value is not listed here; it may have been measured.

TcHisRS: 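Histidine-tRNA ligase, Trypanosoma cruzi CL Brener (UniProt Q4DA54). Enzyme assay of histidyl-tRNA synthetase; the read-out is not stated. Concentration: 30 µM. Direction is inferred from retests: higher values go with stronger inhibition. About 69,000 compounds were tested under these conditions; 0.045% (about 31) showed 50% or more at least once.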
Pks13 thioesterase: 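Enzyme assay of the thioesterase domain of polyketide synthase 13; the read-out is not stated. Target: Polyketide synthase Pks13, Mycobacterium tuberculosis (UniProt I6X8D2). Compounds at 30 µM. Higher reads as stronger inhibition (inferred from which compounds were picked for retests). About 67,000 compounds were tested under these conditions; 0.46% (about 300) showed 50% or more at least once.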
CoaBC: 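Coenzyme A biosynthesis protein CoaBC, Mycobacterium tuberculosis (UniProt P9WNZ1). Enzyme assay of CoaBC with a phosphate dye (Biomol Green) read at 650 nm. Concentration: 30 µM. Higher reads as stronger inhibition, judged from the few compounds that gave an IC50. Most strong results did not repeat in a second test. Size under these conditions: about 67,000 compounds, about 40 of them at 50% or above in at least one test.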
Leishmania in macrophages: 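Cell assay of Leishmania donovani living inside macrophages; the read-out is not stated. Concentration: 30 µM. Direction is inferred from retests: higher values go with stronger inhibition. Of about 69,000 compounds tested this way, about 1,000 (1.5%) reached 50% or more in at least one test.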
PfKRS1: 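Lysine-tRNA ligase, Plasmodium falciparum 3D7 (UniProt Q8IDJ8). Enzyme assay of the cytosolic lysyl-tRNA synthetase in 384-well plates, read by luminescence. Concentration: 30 µM. Direction is inferred from only a few compounds that gave an IC50; most scored high, so higher reads as stronger inhibition. About 69,000 compounds were tested under these conditions; 0.071% (about 49) showed 50% or more at least once.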
MtTrpRS: 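Enzyme assay of tryptophanyl-tRNA synthetase; the read-out is not stated. Target: Tryptophan-tRNA ligase, Mycobacterium tuberculosis (UniProt P9WFT3). Concentration: 10 µM. Higher most likely means stronger inhibition; the record gives no direction and few retests gave an IC50. Of about 65,000 compounds tested this way, about 64 (0.098%) reached 50% or more in at least one test.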

compound,TcHisRS,Pks13 thioesterase,CoaBC,Leishmania in macrophages,PfKRS1,MtTrpRS
O=C([C@H]1COC[C@H]2CN(c3ccncn3)C[C@H]21)N1CCCC1,-2.186%,1.545%,15.9%,-,-3.714%,12.46%
CN1C(=O)CC(c2ccncc2)C12CCN(c1ncccn1)CC2.O=C(O)C(F)(F)F (stereo unspecified),-,-,-,3.806%,-,-
Cc1cccc(S(=O)(=O)N2CC[C@H]3CO[C@H](CN(C)C)[C@H]3C2)c1,7.563%,-11.17%,-16.43%,-,6.767%,-0.382%
Cc1ccn2ncc(C(=O)N3CCCC(c4noc(C)n4)C3)c2n1 (stereo unspecified),1.02%,-24.06%,4.37%,7.742%,-0.3666%,0.000007%
O=C(CCCc1cn[nH]c1)N1C[C@@H](CN2CCCCCC2)[C@@H](CO)C1,-1.571%,-16.44%,-10.08%,20.05%,-0.2013%,1.911%
O=C(O)CC(NC(=O)CCCc1cccs1)c1ccc(F)cc1 (stereo unspecified),-0.8772%,-9.455%,-4.478%,15.15%,-0.9293%,0.1434%
CC(CC(=O)c1ccccc1)NC(=O)c1ccon1 (stereo unspecified),1.786%,-18.18%,5.66%,3.318%,6.675%,0.4082%
[H][C@]12CCN(C(=O)CC(C)C)CC[C@@]1([H])S(=O)(=O)N(Cc1cccnc1)C2,-,-,-,6.286%,-,-
COc1ccc(C(=O)Nc2n[nH]c(C3CCCO3)n2)cc1 (stereo unspecified),6.186%,11.92%,1.179%,-0.4768%,-0.5802%,5.389%
Cc1cc(C)n(CCCNc2ncnc3c2NC(=O)CN3)n1,4.969%,23.15%,5.443%,2.031%,3.305%,3.797%
CC(C)Nc1nc(N2CCOCC2)nc2c1CN(CC(=O)N(C)C)CC2,4.918%,-5.851%,7.772%,24.62%,-13.93%,-1.233%
COc1ccc(NC(C)c2nnnn2-c2ccccc2)cn1 (stereo unspecified),1.84%,8.388%,5.506%,5.92%,4.752%,1.285%
CC(=O)Nc1cccc(CN2CCCC2C(=O)Nc2nccs2)c1 (stereo unspecified),0%,1.139%,12.84%,-9.529%,-5.807%,6.838%
Nc1ccnc(N2CCCC(CCc3ccccc3)(C(=O)O)C2)n1 (stereo unspecified),11.34%,-27.73%,10.77%,19.7%,5.169%,5.202%
Cc1[nH]nc2ncc(C(=O)N3CCN(CC(C)C)CC3)cc12,0.7576%,-7.188%,8.18%,21.68%,1.125%,0.09747%
CC(=O)Nc1ccc(Oc2ccc3c(c2)OCO3)nc1,6.931%,-2.359%,2.309%,45.91%,4.234%,0.3215%
Cc1nc(-c2ccccc2)sc1C(=O)N(C1CC1)C1CC(=O)NC1=O (stereo unspecified),5.732%,-42.31%,-,15.11%,8.173%,4.339%
CCn1nc(C)c(CN2CCC(c3ccc(C(=O)O)cc3)C2)c1C (stereo unspecified),12.35%,-9.119%,-0.4914%,54.96%,-3.208%,-0.641%
CCn1c(C)nnc1CN(C)C1CCN(Cc2nnc(C3CC3)o2)C1 (stereo unspecified),4.07%,3.27%,14.69%,3.187%,6.789%,-6.498%
CCOc1ccccc1N1CCN(C(=O)NCc2cc[nH]n2)CC1,0%,-25.18%,5.236%,-7.768%,-1.114%,31.77%
Cc1nn(C)c2nc(NC(C)c3n[nH]c(=O)[nH]3)sc12 (stereo unspecified),2.488%,-30.51%,0%,11.79%,2.841%,-4.542%
O=C(c1c[nH]c(=O)[nH]c1=O)N1CCCC(c2nccn2CC2CCC2)C1 (stereo unspecified),2.439%,-6.734%,4.684%,-33.36%,8.414%,1.903%
COc1ccc2ccccc2c1CNCC1CCS(=O)(=O)C1.Cl (stereo unspecified),-,-,-,-2.378%,-,-
COCCNC(=O)NC1(c2ccccc2F)CC1,7%,-8.628%,7.107%,32.63%,2.81%,2.056%
CCc1nnc2n1CCN(Cc1csc(Cc3ccccc3)n1)C2,11.05%,-9.802%,0.6579%,-10.51%,2.581%,8.413%
CCC(=O)Nc1ccc(C(C)NC(=O)COC)cc1 (stereo unspecified),12.06%,-10.92%,11.15%,11.95%,-1.641%,0.8834%
O=CO.c1cc2nccc(CC3CCCN(C4CCOCC4)CC3)c2cn1 (stereo unspecified),-,-,-,10.64% & 13.76%,-,-
CN(C)c1cc(C(F)(F)F)nc(N2CCCC2c2ccccn2)n1 (stereo unspecified),12%,2.639%,2.81%,4.136%,9.272%,0.7342%
Cc1nc(CN2CCCN(CC(=O)Nc3ccncc3)CC2)no1,-0.8403%,-17.58%,-17.93%,-0.7136%,4.461%,2.034%
O=C(NCc1ccccc1)C1CN(c2ccccn2)CCO1 (stereo unspecified),10.15%,0.5963%,25.64% & 5.67%,2.283%,1.526%,-3.357%
Cc1n[nH]c(SCC(=O)N2C[C@H]3CC[C@@H]2CN(c2ncccn2)C3)n1,6.704%,53.51%,2.571%,-,0.2669%,-2.344%
COCCCn1ccc(NCc2cnc(C(C)(C)C)s2)n1,6.494%,27.85%,-,-15.08%,-7.411%,4.025%
CCc1cc(NC2CCOCC2)n2nc(C)c(C)c2n1,4.018%,-3.211%,3.571%,26.36%,5.566%,3.565%
COCCC(=O)NCC1COc2cc(OC)ccc2C1 (stereo unspecified),-2.424%,-16.75%,2.043%,0.615%,8.949%,2.719%
Cc1cc(C(=O)Nc2nnn[nH]2)ccc1I,-6.878%,6.737%,3.666%,2.496%,6.83%,-3.667%

The last 3 entries again:

compound	TcHisRS	Pks13 thioesterase	CoaBC	Leishmania in macrophages	PfKRS1	MtTrpRS
CCc1cc(NC2CCOCC2)n2nc(C)c(C)c2n1	4.018%	-3.211%	3.571%	26.36%	5.566%	3.565%
COCCC(=O)NCC1COc2cc(OC)ccc2C1 (stereo unspecified)	-2.424%	-16.75%	2.043%	0.615%	8.949%	2.719%
Cc1cc(C(=O)Nc2nnn[nH]2)ccc1I	-6.878%	6.737%	3.666%	2.496%	6.83%	-3.667%